These are yes or no findings as the source states them, for the method shown. Binding seen in cells or lysates may run through a third protein. Some results given as binding are weak or reduced against the parent protein; the word gives no strength. Tags and fused reporters may be left off the sequences shown.
Experiments:
[1] = molecular target: T1, Reg1 (Saccharomyces cerevisiae) (UniProt Q00816); test: anti-FLAG co-IP, LC-MS/MS
T1 sequence (looked up): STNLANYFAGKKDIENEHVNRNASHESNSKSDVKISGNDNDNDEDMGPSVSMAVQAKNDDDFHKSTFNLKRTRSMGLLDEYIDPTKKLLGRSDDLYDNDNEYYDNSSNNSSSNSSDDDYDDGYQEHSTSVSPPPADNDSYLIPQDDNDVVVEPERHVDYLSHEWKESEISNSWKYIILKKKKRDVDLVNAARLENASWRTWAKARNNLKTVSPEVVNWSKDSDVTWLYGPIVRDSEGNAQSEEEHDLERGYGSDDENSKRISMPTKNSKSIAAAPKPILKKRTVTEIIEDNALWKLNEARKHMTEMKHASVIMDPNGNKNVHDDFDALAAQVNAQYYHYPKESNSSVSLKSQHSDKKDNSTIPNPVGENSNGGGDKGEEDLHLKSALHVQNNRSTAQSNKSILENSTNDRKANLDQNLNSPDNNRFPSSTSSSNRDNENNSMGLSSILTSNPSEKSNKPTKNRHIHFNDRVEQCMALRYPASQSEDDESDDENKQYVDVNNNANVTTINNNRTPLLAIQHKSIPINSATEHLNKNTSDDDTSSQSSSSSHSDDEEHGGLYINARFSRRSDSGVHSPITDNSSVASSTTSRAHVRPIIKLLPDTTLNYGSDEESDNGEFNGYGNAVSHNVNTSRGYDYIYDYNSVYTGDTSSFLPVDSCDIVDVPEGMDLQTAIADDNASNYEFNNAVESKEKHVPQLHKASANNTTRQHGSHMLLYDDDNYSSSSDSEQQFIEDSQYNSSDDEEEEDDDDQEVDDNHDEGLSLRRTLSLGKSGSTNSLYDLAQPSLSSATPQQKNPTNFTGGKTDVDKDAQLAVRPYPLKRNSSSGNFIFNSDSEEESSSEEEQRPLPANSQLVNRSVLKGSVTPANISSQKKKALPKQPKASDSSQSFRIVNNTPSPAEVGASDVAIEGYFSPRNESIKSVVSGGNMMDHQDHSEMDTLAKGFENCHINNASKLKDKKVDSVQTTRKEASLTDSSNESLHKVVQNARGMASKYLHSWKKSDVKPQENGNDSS

Amino acid sequences for entries named in this document (tags omitted).
UniProt P32598: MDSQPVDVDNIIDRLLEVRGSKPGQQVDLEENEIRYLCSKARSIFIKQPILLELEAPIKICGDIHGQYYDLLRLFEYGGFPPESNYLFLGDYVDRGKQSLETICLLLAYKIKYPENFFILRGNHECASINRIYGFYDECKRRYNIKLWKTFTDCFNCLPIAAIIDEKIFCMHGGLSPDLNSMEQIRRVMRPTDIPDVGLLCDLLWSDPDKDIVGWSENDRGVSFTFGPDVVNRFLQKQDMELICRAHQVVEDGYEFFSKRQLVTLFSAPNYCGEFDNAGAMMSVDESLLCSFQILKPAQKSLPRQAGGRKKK

[2] = molecular target: T2, Gip2 (Saccharomyces cerevisiae) (UniProt P40036); test: anti-FLAG co-IP, LC-MS/MS; bait Gip2 by Table 2
T2 sequence (looked up): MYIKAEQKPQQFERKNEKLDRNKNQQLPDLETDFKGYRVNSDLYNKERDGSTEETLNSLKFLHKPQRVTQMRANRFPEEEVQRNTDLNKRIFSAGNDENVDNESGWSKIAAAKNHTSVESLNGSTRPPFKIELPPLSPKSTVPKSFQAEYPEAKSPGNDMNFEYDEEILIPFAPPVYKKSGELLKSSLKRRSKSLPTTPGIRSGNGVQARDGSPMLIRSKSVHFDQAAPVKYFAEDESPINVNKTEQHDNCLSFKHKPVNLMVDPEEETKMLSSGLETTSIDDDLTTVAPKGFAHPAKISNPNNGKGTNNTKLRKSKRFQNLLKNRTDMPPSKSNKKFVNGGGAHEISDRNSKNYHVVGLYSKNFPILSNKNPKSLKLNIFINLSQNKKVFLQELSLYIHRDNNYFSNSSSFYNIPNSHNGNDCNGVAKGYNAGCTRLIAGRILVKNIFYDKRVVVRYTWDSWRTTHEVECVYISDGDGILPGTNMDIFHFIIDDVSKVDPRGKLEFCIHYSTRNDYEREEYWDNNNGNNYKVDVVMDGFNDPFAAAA

[3] = molecular target: T3, Cdc14 (Saccharomyces cerevisiae) (UniProt Q00684); test: anti-FLAG co-IP, LC-MS/MS; bait Cdc14 by Table 2
T3 sequence (looked up): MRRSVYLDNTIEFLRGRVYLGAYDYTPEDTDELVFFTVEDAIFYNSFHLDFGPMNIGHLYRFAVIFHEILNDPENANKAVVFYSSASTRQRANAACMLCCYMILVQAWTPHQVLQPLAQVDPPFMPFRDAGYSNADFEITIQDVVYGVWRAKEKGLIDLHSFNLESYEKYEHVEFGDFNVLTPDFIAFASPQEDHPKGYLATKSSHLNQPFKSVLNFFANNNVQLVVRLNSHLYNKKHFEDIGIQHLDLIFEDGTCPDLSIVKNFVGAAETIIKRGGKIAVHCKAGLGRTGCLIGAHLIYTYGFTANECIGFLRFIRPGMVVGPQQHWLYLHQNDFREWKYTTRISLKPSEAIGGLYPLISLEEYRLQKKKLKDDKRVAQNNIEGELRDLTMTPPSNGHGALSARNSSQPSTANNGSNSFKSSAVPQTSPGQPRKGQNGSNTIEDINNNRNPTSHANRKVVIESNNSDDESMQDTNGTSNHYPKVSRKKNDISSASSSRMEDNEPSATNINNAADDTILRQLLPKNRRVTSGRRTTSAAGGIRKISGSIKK

Measured: binding

Glc7 (from UniProt P32598 1-312)
binds: [1] | [2] | [3]
